# Experimental data reported in PubChem BioAssay AID1671190 (National Center for Advancing Translational Sciences (NCATS), 2021).
# Sequences of proteins named here, by UniProt entry; tags and fusion partners are left off.
# UniProt P18054, whole entry, looked up: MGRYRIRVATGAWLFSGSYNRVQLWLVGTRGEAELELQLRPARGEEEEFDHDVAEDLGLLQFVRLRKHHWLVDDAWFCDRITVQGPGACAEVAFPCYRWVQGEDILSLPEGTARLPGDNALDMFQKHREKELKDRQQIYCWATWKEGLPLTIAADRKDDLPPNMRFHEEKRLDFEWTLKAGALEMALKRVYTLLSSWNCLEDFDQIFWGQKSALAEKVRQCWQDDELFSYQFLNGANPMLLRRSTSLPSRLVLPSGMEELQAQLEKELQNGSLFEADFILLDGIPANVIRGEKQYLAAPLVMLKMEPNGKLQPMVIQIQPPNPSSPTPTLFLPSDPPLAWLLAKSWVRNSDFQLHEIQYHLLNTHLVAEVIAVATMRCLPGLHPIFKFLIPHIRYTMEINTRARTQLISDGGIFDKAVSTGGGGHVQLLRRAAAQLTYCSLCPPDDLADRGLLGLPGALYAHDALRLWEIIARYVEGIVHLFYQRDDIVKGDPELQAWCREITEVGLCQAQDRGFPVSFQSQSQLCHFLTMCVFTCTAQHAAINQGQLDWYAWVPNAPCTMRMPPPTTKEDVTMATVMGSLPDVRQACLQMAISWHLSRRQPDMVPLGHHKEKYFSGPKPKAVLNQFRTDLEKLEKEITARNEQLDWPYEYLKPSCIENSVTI
# Among all 580,000 compounds or so, about 6,100 (1.1%) were called active. Inconclusive results, whose numbers are uncertain, are shown with a selection of clear calls. The call rests on the fitted dose curve; in most records, active means well fitted inhibition curve with a large enough effect; inconclusive means small, poorly fitted or top-dose-only effect, or another doubt; inactive means no such curve, though single readings can be large or run the other way. A potency beside an inconclusive call is a rough fit, not a confirmed value.
# Target: Polyunsaturated fatty acid lipoxygenase ALOX12 (Homo sapiens) (UniProt P18054)
# Assay: Primary qHTS assay for inhibitors of human arachidonate 12S-lipoxygenase (ALOX12): Round 2
# Settings: purified 12hLO, xylenol orange hydroperoxide absorbance; activity change, negative = inhibition: at 108 µM (top of the series) unless noted
# Method in brief: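 Hydroperoxide product was detected by ferrous iron/xylenol orange as the 573 to 405 nm absorbance ratio. Arachidonic acid at 40 uM (final) was turned over for 30 min at room temperature by 150 nM human 12hLO, pH 7.0 Hepes buffer, after 15 min compound preincubation.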
# On the % scale 0 is the no-effect control and ±100 the full control effect; potency means the concentration at half of the fitted maximal effect.
Structure (SMILES),Potency,"activity change, negative = inhibition"
O=C(Nc1ccccc1NS(=O)(=O)c1cccs1)c1ccc(Cl)cc1[N+](=O)[O-],"inconclusive: 12.6 µM [inhibitor, full curve, poor fit]",–
CCCCc1ccc(NC(=O)CN2C(=O)NC(c3ccc(C)cc3)C3=C2COC3=O)cc1 (stereo unspecified),"inconclusive: 79.4 µM [inhibitor, single point]",–
O=C(O)CCCNC(=O)Cn1ccc2c(Br)cccc21,"inconclusive: 2.82 µM [inhibitor, full curve, poor fit]",–
Cc1ccc(SCC(=O)OCC(=O)NCCC2=CCCCC2)cc1,"inconclusive: 89.1 µM [inhibitor, partial curve, poor fit]",–
COc1ccc(CCNCC(=O)Nc2ccccc2C(F)(F)F)cc1,"inconclusive: 1 µM [inhibitor, full curve]",–
Cc1ccc2cccc(NC(=O)COc3ccc(Cl)cc3)c2n1,inactive,–
NC(=O)c1cc(S(=O)(=O)N2CCOCC2)ccc1Sc1ccccc1N,"inconclusive: 56.2 µM [inhibitor, partial curve, poor fit]",–
O=C(NCCc1ccccc1)C(c1cccs1)N(C(=O)CCl)c1ccc(Cl)cc1 (stereo unspecified),"inconclusive: 56.2 µM [inhibitor, partial curve, poor fit]",–
O=C(Cc1ccc(Cl)cc1)Nc1ccc(Br)cc1,"inconclusive: 112 µM [inhibitor, single point]",–
Fc1ccccc1-c1nc(N2CCN(c3cccc(Cl)c3)CC2)c2ccccc2n1,inactive,–
CC(=O)c1ccc(NC(=O)CSc2nc(C)c(C)o2)cc1,"inconclusive: 44.7 µM [inhibitor, partial curve, poor fit]",–
Cn1ccnc1C(NC(=O)Nc1ccc(F)cc1)c1ccccc1F (stereo unspecified),inactive,–
O=C(NN=C1CCCC1)c1ccc(Cl)cc1,inactive,–
CCCCNC(=S)N/N=C/c1ccccc1F,"inconclusive: 44.7 µM [inhibitor, partial curve, poor fit]",–
COC(=O)C1=C(C)N(Cc2ccc(F)cc2)C(=S)NC1c1cccc(Br)c1 (stereo unspecified),"inconclusive: 39.8 µM [inhibitor, partial curve, poor fit]",–
Cc1nnc(NCC=Cc2ccccc2)s1,"inconclusive: 31.6 µM [inhibitor, partial curve]",–
CCN(CC)CCn1c2c(c(SCC(=O)Nc3ccc(F)c(F)c3)nc1=O)CCC2,inactive,–
Cc1cccc(NC(=S)N/N=C/c2c[nH]c3ccccc23)c1,"inconclusive: 39.8 µM [inhibitor, partial curve, poor fit]",–
CCN(CC)CCN1c2ccccc2Sc2ccc3ccccc3c21,"inconclusive: 79.4 µM [inhibitor, partial curve, poor fit]",–
CC(=O)N[C@@H](Cc1c[nH]c2ccccc12)C(=O)NC1CCCCCC1,–,inconclusive: -35.8% [inhibitor]
CCn1c(/N=C/c2c[nH]c3ccccc23)nc2ccccc21,"inconclusive: 0.224 µM [inhibitor, full curve, poor fit]",–
O=C(O)C1=C[C@H](c2ccc3c(c2)OCO3)C[C@H](OCCCCO)O1,"inconclusive: 70.8 µM [inhibitor, single point]",–

# Quoted at random: four records from the list
Structure (SMILES),Potency,"activity change, negative = inhibition"
O=C(O)CCCNC(=O)Cn1ccc2c(Br)cccc21,"inconclusive: 2.82 µM [inhibitor, full curve, poor fit]",–
CC(=O)c1ccc(NC(=O)CSc2nc(C)c(C)o2)cc1,"inconclusive: 44.7 µM [inhibitor, partial curve, poor fit]",–
Cc1cccc(NC(=S)N/N=C/c2c[nH]c3ccccc23)c1,"inconclusive: 39.8 µM [inhibitor, partial curve, poor fit]",–
Cc1nnc(NCC=Cc2ccccc2)s1,"inconclusive: 31.6 µM [inhibitor, partial curve]",–

# Further entries

Structure (SMILES),Potency,"activity change, negative = inhibition"
CCOc1ccccc1/C=C\c1nc(O)c([N+](=O)[O-])c(=O)[nH]1,"inconclusive: 100 µM [inhibitor, single point]",–
O=C(CSc1nc(N2CCOCC2)nc(N2CCOCC2)n1)Nc1cccc(C(F)(F)F)c1,inactive,–
CCOc1cc(C2NC(=O)N(C)C(C)=C2C(=O)OC2CCCC2)cc(Br)c1O (stereo unspecified),"inconclusive: 70.8 µM [inhibitor, partial curve, poor fit]",–
O=C(NCc1ccco1)c1ccc(C(=O)NCc2ccco2)s1,inactive,–
CC1CCN(S(=O)(=O)c2ccc(C(=O)Nc3nnc(C4CC4)o3)cc2)CC1,inactive,–
COc1cccc2oc3ccc(C#Cc4ccccn4)cc3c(=O)c12,"inconclusive: 44.7 µM [inhibitor, partial curve, poor fit]",–
COc1ccccc1C(=O)NCC[N+](C)(C)C,"inconclusive: 15.8 µM [inhibitor, full curve, poor fit]",–
C=C(CC[C@@H](O)C(C)(C)O)[C@H]1CC[C@]2(C)[C@@H]1CCC1[C@@]3(C)CCC(=O)C(C)(C)C3CC[C@]12C (stereo partly specified),inactive,–
Cc1cc(C)c2sc(N(CCN(C)C)C(=O)c3c(F)cccc3F)nc2c1,"inconclusive: 126 µM [inhibitor, single point]",–
O=C(Cc1cccs1)Nc1nc2c(ccc3ccccc32)s1,inactive,–
COC(=O)c1cccc(-c2ccc(C(c3c(C)[nH][nH]c3=O)c3c(C)[nH][nH]c3=O)o2)c1,"inconclusive: 11.2 µM [inhibitor, partial curve, poor fit]",–
CCc1ccc(-n2nc3cc(C)c(N)cc3n2)cc1,active: 20 µM,–
CCC(=O)N1c2ccc(S(=O)(=O)CCC(=O)NCc3ccccc3OC)cc2CC1C (stereo unspecified),"inconclusive: 39.8 µM [inhibitor, partial curve, poor fit]",–
CC(=O)N[C@@H]1Cc2ccccc2[C@H]1NC(=O)CCc1cc2n(n1)CCCNC2,"inconclusive: 17.8 µM [inhibitor, full curve]",–
O=C(CNCCC1=CCCCC1)Nc1ccc(N2CCCCCC2)cc1,inactive,–
CCN(CC(=O)NC(=O)NC1CC1)C(C)c1ccc(C#N)cc1 (stereo unspecified),inactive,–
CC1=C(/C=C/C(C)=C/C=C/C(C)=C\C=O)C(C)(C)CCC1,"inconclusive: 141 µM [inhibitor, partial curve, poor fit]",–
COCCNC(=S)N1CCc2cc(OC)c(OC)cc2C1COc1ccc(C(C)C)cc1 (stereo unspecified),"inconclusive: 44.7 µM [inhibitor, partial curve, poor fit]",–
O=c1c2cc(N3CCOCC3)ccc2[nH]c(=S)n1CCCN1CCCC1,"inconclusive: 56.2 µM [inhibitor, partial curve, poor fit]",–
Cc1ccc(C)c(OCC(=O)NCC(c2ccco2)N2CCCCC2)c1 (stereo unspecified),"inconclusive: 63.1 µM [inhibitor, partial curve, poor fit]",–
CC(=O)N1CCc2cc(Br)cc(S(=O)(=O)N3CCC(C(=O)Nc4cccc(C)c4C)CC3)c21,"inconclusive: 56.2 µM [inhibitor, partial curve, poor fit]",–
Cc1cccc(N2CCN(C(=O)c3ccccc3NC(=O)C3=CSCCO3)CC2C)c1 (stereo unspecified),inactive,–

Structure (SMILES),Potency,"activity change, negative = inhibition"
Cc1nn(C)c(Oc2ccccc2)c1[N+](=O)[O-],"inconclusive: 0.447 µM [inhibitor, full curve, poor fit]",–
Cc1ccc(CNC(=O)Nc2cc(C(=O)NCc3cccc(F)c3)ccc2N2CCCC2)cc1,"inconclusive: 112 µM [inhibitor, partial curve, poor fit]",–
COc1cc(CNCCN2CCOCC2)ccc1OCc1ccc(Cl)cc1Cl,"inconclusive: 35.5 µM [inhibitor, partial curve, poor fit]",–
CCc1ccc(C(=O)NCCOC)o1,inactive,–
Cc1ccc(NC(=O)CN(C)C(=O)CCc2ncc(-c3ccc(C)c(C)c3)o2)cc1,"inconclusive: 56.2 µM [inhibitor, partial curve, poor fit]",–
COc1ccc(-c2nc(-c3cccs3)sc2-c2ccc(OC)cc2)cc1,inactive,–
Cc1ccc(-c2n[nH]c(=S)nc2-c2ccc(C)cc2)cc1,"inconclusive: 56.2 µM [inhibitor, partial curve, poor fit]",–
Cc1sc(NC(=O)c2cc3ccccc3o2)c(C#N)c1C,"inconclusive: 7.94 µM [inhibitor, partial curve, poor fit]",–
CCOC(=O)Oc1c(OC)cc(C(=O)O[C@@H]2C[C@@H]3CN4CCc5c([nH]c6cc(OC)ccc56)[C@H]4C[C@@H]3[C@H](C(=O)OC)[C@H]2OC)cc1OC,"inconclusive: 56.2 µM [inhibitor, partial curve, poor fit]",–
Cc1ccc(Cn2c(SCCN3CCOCC3)nc3c2c(=O)n(C)c(=O)n3C)cc1,inactive,–
CN(CC(=O)Nc1cccc(F)c1)C(=O)c1sc2ccccc2c1Cl,"inconclusive: 31.6 µM [inhibitor, partial curve, poor fit]",–
O=C(NCc1ccccc1)C(c1ccccc1)n1c(=O)c(-c2ccco2)nc2ccccc21 (stereo unspecified),"inconclusive: 39.8 µM [inhibitor, partial curve, poor fit]",–
CC(C)C(=O)N(Cc1cc2ccccc2[nH]c1=O)c1ccccc1,"inconclusive: 112 µM [inhibitor, single point]",–
Cc1noc(C)c1S(=O)(=O)N1CCCCCCn2c(nnc2-c2ccc(F)cc2)CC1,"inconclusive: 70.8 µM [inhibitor, single point]",–
COc1ccc2nc(NC(=O)CCc3ccc(OC)c(OC)c3)sc2c1,inactive,–
Cn1c(/C(C#N)=C/c2ccccc2Br)nc2ccccc21,inactive,–
Nc1[nH]c(C(=O)c2ccccc2)c(-c2ccc(Cl)cc2Cl)c1C(=O)c1ccc(Cl)c(Cl)c1,inactive,–
CCCOc1ccc(C(=O)NNC(=S)NC(=O)c2ccco2)cc1,active: 39.8 µM,–
CCn1nccc1C(=O)NC1=C(C#N)CCC1,inactive,–
Oc1ccc(C2(c3ccc(Br)cc3)CCCCC2)cc1,"inconclusive: 70.8 µM [inhibitor, partial curve, poor fit]",–
CC1C(=O)N2CCCc3cc(S(=O)(=O)N4CCc5ccccc54)cc1c32 (stereo unspecified),"inconclusive: 44.7 µM [inhibitor, partial curve, poor fit]",–
Cc1cc2nc3n(c(=O)c2n1CC(=O)Nc1cccc(Cl)c1)CCC3,"inconclusive: 17.8 µM [inhibitor, full curve, poor fit]",–
